## Primary screen of a compound library

The chains behind the UniProt entries cited, without tags or fusion partners.
UniProt E9BF75, entry or part of it: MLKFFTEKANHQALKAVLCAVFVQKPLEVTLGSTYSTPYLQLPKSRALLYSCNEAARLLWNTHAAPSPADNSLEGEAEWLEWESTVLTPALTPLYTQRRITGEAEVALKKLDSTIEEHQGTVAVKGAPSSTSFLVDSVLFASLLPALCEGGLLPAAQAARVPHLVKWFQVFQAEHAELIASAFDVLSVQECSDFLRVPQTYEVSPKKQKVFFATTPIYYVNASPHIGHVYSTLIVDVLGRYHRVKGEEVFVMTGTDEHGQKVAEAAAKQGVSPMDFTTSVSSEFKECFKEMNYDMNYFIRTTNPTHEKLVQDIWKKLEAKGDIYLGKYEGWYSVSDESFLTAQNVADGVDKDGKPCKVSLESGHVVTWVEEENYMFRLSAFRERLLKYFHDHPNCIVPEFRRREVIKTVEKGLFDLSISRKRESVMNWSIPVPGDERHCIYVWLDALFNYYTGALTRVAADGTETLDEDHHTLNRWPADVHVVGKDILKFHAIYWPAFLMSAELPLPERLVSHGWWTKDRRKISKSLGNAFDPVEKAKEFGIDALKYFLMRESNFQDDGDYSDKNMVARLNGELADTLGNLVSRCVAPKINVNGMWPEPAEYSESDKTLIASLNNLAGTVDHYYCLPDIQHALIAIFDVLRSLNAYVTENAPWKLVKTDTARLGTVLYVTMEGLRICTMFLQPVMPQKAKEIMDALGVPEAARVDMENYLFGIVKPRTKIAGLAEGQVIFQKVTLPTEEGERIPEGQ

LdMetRS: 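Methionyl-tRNA synthetase (putative), Leishmania donovani (UniProt E9BF75). Primary screen of methionyl-tRNA synthetase; the read-out is not stated. The test concentration is not given. Values are per cent inhibition. Size under these conditions: about 68,000 compounds, about 24 of them at 50% or above in at least one test.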
Mtb heat-shock: 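Assay on Mycobacterium tuberculosis, filed only as a heat shock assay from Cornell; the read-out is not stated. The concentration is filed as 10 mM, unlikely as a test dose, so the dose is not known. Higher reads as stronger inhibition (inferred: compounds with an IC50 in retests scored well above the rest). About 69,000 compounds were tested under these conditions; 1.4% (about 930) showed 50% or more at least once.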

All values are in %. How 0% and 100% were set is not recorded. Most values in the screen are low, and negative values occur. The compounds are a random part of those screened. A dash means the value is not listed here; it may have been measured.

| # | SMILES | LdMetRS | Mtb heat-shock |
|---|---|---|---|
| 1 | `[H][C@]12CCN(C(=O)NCc3cccc(F)c3)C[C@@]1([H])OCCN(C)C2` | - | 4.97 |
| 2 | `CCCc1nc(C)cc(N2CCC3(CCC(=O)N(CC(N)=O)C3)CC2)n1` | 12.81 | 0.6122 |
| 3 | `CCNc1nc(-c2cccnc2)c(-c2ccnc(N3CCOCC3)n2)s1` | 11.89 | -12.38 |
| 4 | `[H][C@@]12CN(c3ccccn3)C[C@]1([H])N(CCCc1ccc(F)cc1)C(=O)O2` | - | -5.86 |
| 5 | `CCNC(=O)[C@@H]1CCCN1C1(C(=O)NC)CCC1` | 3.297 | - |
| 6 | `CCCSCC(=O)Nc1ncn(CC(=O)NCc2ccccc2)n1` | 19.51 | 20.25 |
| 7 | `O=C(c1cc2c(s1)CCCCC2)N1CCC(c2ncc[nH]2)CC1` | 24.93 | -1.732 |
| 8 | `Fc1cccc(NCc2ncc[nH]2)c1` | 14.29 | -16.28 |
| 9 | `CC1CCN(CCNC(=O)c2cncnc2C(C)C)CC1` | 15.93 | 9.653 |
| 10 | `[H][C@@]12CCN(Cc3nc(C)cs3)C[C@]1([H])OCCN(c1cccnc1)C2=O` | - | -7.493 |
| 11 | `O=C(O)C(F)(F)F.O=C(O)C(F)(F)F.O=C(O)C(F)(F)F.[H][C@@]12OCCN(Cc3cccc(C)n3)[C@@]1([H])CC[C@@H]2OCc1ccncc1` | - | -9.598 |
| 12 | `[H][C@@]12CS(=O)(=O)C[C@]1([H])N(Cc1nc3ccccc3[nH]1)CCN2C` | - | 2.98 |
| 13 | `Cc1nc(C)n(CC2CCCN2Cc2coc(-c3cccs3)n2)n1` (configuration not stated) | 18.56 | 10.93 |
| 14 | `COc1c(C2CCCN2CC(=O)Nc2nc(C)cs2)c(C)nn1C` (configuration not stated) | 11.75 | 75.33 |
| 15 | `CN(C)C(=O)N1CCc2onc(C(=O)Nc3cccnc3)c2C1` | 10.56 | - |
| 16 | `Nc1nc(N)c2c(n1)OC1(CCN(Cc3nccs3)C1)C2` (configuration not stated) | 12.11 | 14.58 |
| 17 | `Cc1n[nH]c(C)c1C1CCCN1C(=O)c1coc(Br)c1` (configuration not stated) | 1.742 | -0.2699 |
| 18 | `Cn1cc(CN2CCCC3(CCN(Cc4cccnc4)C3=O)C2)cn1` (configuration not stated) | 13.13 | 2.004 |
| 19 | `CC(=O)N(C)C(c1cccnc1)c1ccc(F)c(F)c1` (configuration not stated) | 0.8357 | -31.96 |
| 20 | `CCOC(=O)C1CSCCN1C(=O)c1ccc(-n2nc(C)cc2C)cc1` (configuration not stated) | 2.256 | -36.58 |
| 21 | `Fc1cnc(N2CCCn3c(CN4CCOCC4)nnc3C2)nc1` | 10.14 | - |
| 22 | `CNc1cncc(C2CCCN2Cc2cccc(C)n2)n1` (configuration not stated) | 8.235 | 0.9246 |
| 23 | `Cc1cccc(CN2CCC(c3csc4nccn34)CC2)n1` | 14.33 | - |
| 24 | `O=C(NCCc1ccccc1)C1CCCN(c2ccc3nncn3n2)C1` (configuration not stated) | 13.33 | -5.138 |
| 25 | `Cn1ccc(CN2CCC(CO)CC2)cc1=O` | 17.36 | 4.705 |
| 26 | `COCC(=O)N1CCCC2(CCN(CCN3CCCC3)CC2)C1.O=C(O)C(F)(F)F.O=C(O)C(F)(F)F` | - | -13.99 |
| 27 | `CCc1nc(NS(=O)(=O)c2cc(C)cc(F)c2)no1` | 8.741 | -4.979 |
| 28 | `CS(=O)(=O)NC[C@H]1OC[C@@H](NC2CCC(F)(F)CC2)[C@@H]1O` | 5.085 | -1.102 |
| 29 | `Cc1csc(CNCC2CCCN(C(=O)OC(C)(C)C)C2)n1` (configuration not stated) | 4.762 | -11.58 |
| 30 | `Cc1nc(O)cc(C2CCN(C(=O)c3[nH]nc4c3CC(C)CC4)CC2)n1` (configuration not stated) | 15.49 | 14.35 |
| 31 | `CN1CC2(CCN(C(=O)c3cccnc3)CC2)c2cccc(F)c21.Cl` | - | -8.236 |
| 32 | `c1ccc(CN2C[C@@H]3OCCN(CC4CCCO4)[C@@H]3C2)nc1` (some centres not stated) | 15.82 | - |
| 33 | `c1cnc2c(C3CCN(Cc4ccsc4)CC3)n[nH]c2n1` | 4.452 | -23.7 |
| 34 | `Cc1nc[nH]c1CN1CCN(C(=O)C2(C)CC2)[C@H]2CS(=O)(=O)C[C@H]21` | 14.98 | - |
| 35 | `Nc1ncc(C(=O)N2CCCC(N)CC2)c(-c2ccccc2)n1` (configuration not stated) | 2.74 | -7.303 |
| 36 | `C=C(C)COc1cccc(C(=O)N(C)Cc2cc(CC)no2)c1` | 9.51 | -7.693 |
| 37 | `CC(c1ncc(C(C)(C)C)o1)N1CCN(Cc2ccc(Cl)s2)CC1` (configuration not stated) | 4.082 | 10 |
| 38 | `CCc1noc(CNc2ccc(C(=O)N3CCCC(C)C3)cc2C)n1` (configuration not stated) | 10.93 | 20.18 |
| 39 | `O=C(c1ccc(Cl)cc1)N1CC2(CCNC2)OCc2ccccc21` (configuration not stated) | 16 | 14.91 |
| 40 | `Cc1ccc(-n2ncc(C(=O)N(C)C3CCN(C)CC3)c2N)cc1C` | 5.278 | 7.535 |
| 41 | `Cc1csc([C@H]2C[C@@H]3CCN(C(=O)c4ccnnc4)C[C@H]3O2)n1` | 15.6 | - |
| 42 | `CC(=O)N1CCC1c1cc(N2CCNC(=O)C2)nc(C)n1` (configuration not stated) | 5.28 | 8.204 |
| 43 | `CCn1ccnc1CN1CCCN(C(=O)c2cccn2C)CC1` | 7.975 | -3.686 |
| 44 | `Cc1cc2n(n1)CC(CNCc1ccnc(-n3ccnc3C)c1)CN2` (configuration not stated) | 9.184 | -6.218 |
| 45 | `Cc1ccc(C(=O)Nc2ccc(N3CCCC3)cn2)cc1F` | 9.42 | 23.58 |
| 46 | `Cc1cc(C(=O)CN2CCN(c3nccs3)CC2)c(C)n1C1CC1` | 15.01 | -15.52 |
| 47 | `CCCC1(CO)CCCN(C(=O)CNC(C)=O)C1` (configuration not stated) | 7.43 | -1.082 |
| 48 | `CC(C)(C)c1cc(NC(=O)CN2CCC(N3CCNC3=O)CC2)on1` | 4.918 | -15.96 |
| 49 | `Cc1cc(C(=O)NC2CCN(C(=O)Nc3cccnc3)CC2)c(C)o1` | 14.09 | 3.033 |
| 50 | `O=C(NC1CC1)[C@@H]1CCO[C@@H]2CCN(CC3CCC3)C[C@H]21` | 16.25 | - |
| 51 | `O=C(CCCNc1ncccn1)N1CCCC(n2ccnc2)C1` (configuration not stated) | 7.163 | -3.819 |
| 52 | `CCN(CC)Cc1nnc2sc(C(C)Oc3ccccc3)nn12` (configuration not stated) | 0.5263 | 4.275 |
| 53 | `CC(c1nccs1)N(C)S(=O)(=O)NCc1ccccc1` (configuration not stated) | 12.06 | -1.778 |
| 54 | `COc1ccc(CN2CCC(c3cc(O)nc(C)n3)C2)c(OC)c1` (configuration not stated) | 12.47 | - |
| 55 | `CCn1cc(C(=O)N2CCCC(c3nccs3)C2)cn1` (configuration not stated) | 5.882 | -1.577 |
| 56 | `CN1CCN(S(=O)(=O)c2ccc(C(=O)N3CC[C@@H](O)C3)cc2)CC1=O` | 10.19 | 1.827 |
| 57 | `Nc1cccc(-c2cccc3ccnn23)n1` | 14.43 | -16.42 |
| 58 | `COc1ccc(OC)c(NC(=O)CSc2ccc3nncn3n2)c1` | 14.92 | -4.851 |
| 59 | `COc1ccc(S(=O)(=O)N2Cc3c(CN(C)C)nn(C)c3C2)cc1.O=C(O)C(F)(F)F` | - | -0.6038 |
| 60 | `c1nc(N2CCc3[nH]cnc3C2)c2cc[nH]c2n1` | 12.91 | 14.67 |
| 61 | `CN(C)CCCC(=O)NC1CC(C)(C)Cc2nc(C(C)(C)C)ncc21` (configuration not stated) | 9.288 | -20.05 |
| 62 | `COc1ccc2c(c1)nc1n2[C@@H](CNC(=O)c2cccnc2)COC1` | 4.407 | -57.71 |
| 63 | `CCc1noc(C2CCCCN2C(=O)c2sccc2C)n1` (configuration not stated) | -31.91 | -18.21 |
| 64 | `COc1ncccc1C(=O)N1C[C@@H]2COC[C@]2(CN(C)C)C1` | 9.42 | - |
| 65 | `COc1ccc(C2(C(=O)N3CC[C@@]4(O)CCNC[C@H]4C3)CCCC2)cc1` | 0 | - |
| 66 | `COCCCN1CCCC1c1noc(C2CC2)n1` (configuration not stated) | 15.49 | -1.773 |
| 67 | `CCC(=O)N1CCN(Cc2cc(-c3ccncc3)nn2C)CC1` | 3.767 | -12.08 |
| 68 | `CC(C)c1ccc(CC2(C)Cc3cc(CC(=O)O)ccc3O2)cc1` (configuration not stated) | -0.6231 | -22.9 |
| 69 | `Cn1nnnc1SCC1COc2ccccc2O1` (configuration not stated) | 13.78 | -6.375 |
| 70 | `CCOCCn1c(=O)[nH]c2cc(C(=O)N(C)CCc3cn[nH]c3)ccc21` | 7.609 | -10.72 |
| 71 | `O=C(O)C(F)(F)F.[H][C@]12CO[C@H](CNC(=O)c3cscn3)[C@@]1([H])CCN(Cc1ccco1)C2` | - | -34.12 |
| 72 | `N#Cc1ccc(OCCCN2CCOC(Cn3cncn3)C2)cc1` (configuration not stated) | 7.977 | -29.73 |
| 73 | `c1cncc(OC[C@@H]2CCC[C@@]23CN(Cc2nccs2)CCO3)c1` | 11.94 | - |
| 74 | `CS(=O)(=O)Cc1ccc(NC(=O)c2cccnc2)cc1F` | 9.415 | 0.877 |
| 75 | `O=C(Nc1ccc(F)cc1)C1CNCCN1C(=O)CCc1cccnc1` (configuration not stated) | 7.904 | 12.67 |
| 76 | `COc1ccc(CCCN(C)C(=O)c2cc(C(C)=O)c[nH]2)cc1OC` | -0.2793 | 2.915 |
| 77 | `O=C(CN1CCCCCC1)NCc1ccc2[nH]c(=O)[nH]c2c1` | 9.045 | 0.1415 |
| 78 | `CCNC(=O)[C@@H]1C[C@@H](NC(=O)c2cc(C)on2)CN1Cc1ccccn1` | 12.77 | -9.289 |
| 79 | `O=C(CN1C(=O)CCC1=O)N1Cc2cncnc2C1` | 12.23 | 5.446 |
| 80 | `Cc1ccc(CC(=O)N2CCc3nnc(N(C)C)cc3C2)cn1` | 9.202 | 48.05 |
| 81 | `CC1CCN(C(=O)c2cn(-c3ccc(C(F)(F)F)cn3)nn2)CC1` | 12.53 | 10.61 |

Some entries from above, unchanged:

SMILES,LdMetRS,Mtb heat-shock
COc1c(C2CCCN2CC(=O)Nc2nc(C)cs2)c(C)nn1C (configuration not stated),11.75,75.33
CN(C)CCCC(=O)NC1CC(C)(C)Cc2nc(C(C)(C)C)ncc21 (configuration not stated),9.288,-20.05
O=C(Nc1ccc(F)cc1)C1CNCCN1C(=O)CCc1cccnc1 (configuration not stated),7.904,12.67
Cc1nc[nH]c1CN1CCN(C(=O)C2(C)CC2)[C@H]2CS(=O)(=O)C[C@H]21,14.98,-
CN(C)C(=O)N1CCc2onc(C(=O)Nc3cccnc3)c2C1,10.56,-
[H][C@@]12CCN(Cc3nc(C)cs3)C[C@]1([H])OCCN(c1cccnc1)C2=O,-,-7.493
O=C(CN1C(=O)CCC1=O)N1Cc2cncnc2C1,12.23,5.446
[H][C@]12CCN(C(=O)NCc3cccc(F)c3)C[C@@]1([H])OCCN(C)C2,-,4.97

From ChEMBL document CHEMBL3988442, “University of Dundee, Small-Polar-MMV Screening Library” (2021).